Assay results from article PMC4123912.

The chains behind the UniProt entries cited, without tags or fusion partners. Where a name states a change or a piece, a line headed by the entry shows the natural chain unless it says otherwise.
UniProt Q99836: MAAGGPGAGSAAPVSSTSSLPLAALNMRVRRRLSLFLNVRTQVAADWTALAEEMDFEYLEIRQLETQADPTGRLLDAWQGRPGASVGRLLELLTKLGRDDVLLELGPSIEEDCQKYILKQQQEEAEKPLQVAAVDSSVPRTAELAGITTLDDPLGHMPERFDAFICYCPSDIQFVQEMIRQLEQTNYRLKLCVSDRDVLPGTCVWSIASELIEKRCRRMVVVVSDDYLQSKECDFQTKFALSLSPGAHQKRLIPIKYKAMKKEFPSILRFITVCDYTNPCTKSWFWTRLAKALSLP
UniProt Q92985: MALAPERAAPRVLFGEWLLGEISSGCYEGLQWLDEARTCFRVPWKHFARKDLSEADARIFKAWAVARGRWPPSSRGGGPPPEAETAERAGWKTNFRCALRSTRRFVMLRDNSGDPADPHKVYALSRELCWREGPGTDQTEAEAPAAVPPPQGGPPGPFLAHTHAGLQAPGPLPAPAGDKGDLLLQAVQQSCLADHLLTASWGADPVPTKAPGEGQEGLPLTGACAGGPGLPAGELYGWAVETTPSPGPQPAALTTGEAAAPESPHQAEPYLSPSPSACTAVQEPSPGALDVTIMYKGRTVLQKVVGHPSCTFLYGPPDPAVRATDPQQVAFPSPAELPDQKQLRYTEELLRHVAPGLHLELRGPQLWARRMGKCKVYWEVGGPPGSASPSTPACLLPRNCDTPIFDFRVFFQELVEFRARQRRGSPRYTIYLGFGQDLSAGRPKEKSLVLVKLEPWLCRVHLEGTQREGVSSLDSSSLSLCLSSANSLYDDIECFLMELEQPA

Experiments:
[1] = molecular target: FLAG-tagged human MyD88 (human) (UniProt Q99836); test: co-IP; HEK293T cells co-transfected with FLAG-MyD88 and GFP-IRF7 (human or bat), lysed 24 h later (50 mM Tris pH 7.4, 1.0% Triton X-100, 150 mM NaCl, 1 mM EDTA); FLAG-MyD88 precipitated with anti-FLAG M2-agarose, 2 h at 4°C; blot with anti-human IRF7 antibody
[2] = molecular target: FLAG-tagged bat (Pteropus alecto) MyD88 (Pteropus alecto); test: as above

With “GFP-tagged human IRF7 (from UniProt Q92985)” the binding [1] was “binds”.

B1: GFP-tagged bat (Pteropus alecto) IRF7 (protein, UniProt A0A076YII5 1-503)
chain: MAAARDRGAPRVLFADWLLGEVSSGRYEGLRWLDEARTRFRVPWKHFSRKNLGEADSLIFKAWAIARGRWPLSSGPGNPPIRESALRAGWKTNFRCALRSTQRFVMLHDNSADPADPHKVYELSSEPPWRESPGINQGEHKALEDASSWRGGLPRPHLVDAGERLGPAPSAPSPGLAGSTGDLLLQALQQSHLEDHLLDGAQEVDPVPLEAPGPELPAEQPYLPWAMEVAASPRSQPQAAMTDAGPAPEPWQPLQETEPSTQVVGPSHPQPSLHVESGLGTLDVTIMYKGRTVLQEVVGRPRCVLLYGPPGLASEAREPQEPQMVAFPSPAEPPDQKQLHYTEKLLQHVAPGLQLELRGPGLWARRLGKCKVYWEVGGPLGSDNPSTPARLLQRNCDTPIFDFGTFFRELVEFRTRQRRGSPHYTIYLGFGQDLSAGRSKDRSLVLVKLEPWLCRAYLESVQREGVSSLDSSSFSSALSSSNSLYEDLEHFLEHFLMEVEQPA
In the case of B1, the binding [2] is reported as “binds”.

These are yes or no findings as the source states them, for the method shown. In cells and extracts the contact can be indirect. A result given as binding can be weak or reduced; the word gives no strength. For some assays here: Where a sequence is shown, tags or fusion partners need not be part of it.
